Here are results for 1 substance from paper PMC11263707.

The chains behind the UniProt entries cited, without tags or fusion partners.
UniProt P06748: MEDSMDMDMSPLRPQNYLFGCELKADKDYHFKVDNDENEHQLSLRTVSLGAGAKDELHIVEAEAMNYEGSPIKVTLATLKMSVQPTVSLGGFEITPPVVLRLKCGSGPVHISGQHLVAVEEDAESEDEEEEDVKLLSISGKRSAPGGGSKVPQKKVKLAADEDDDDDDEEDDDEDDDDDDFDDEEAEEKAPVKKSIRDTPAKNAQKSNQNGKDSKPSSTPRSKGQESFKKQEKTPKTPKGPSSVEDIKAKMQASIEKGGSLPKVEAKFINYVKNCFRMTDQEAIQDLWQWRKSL

Results are given in words; binding and its absence hold for the method and conditions named. Binding seen in cells or lysates may run through a third protein. These calls come from enrichment with a bait or labelling near it, and not all partners need be listed. Where a sequence is shown, tags or fusion partners need not be part of it.

This test has as its target T1, Flag-ALDH9A1 (human) (UniProt P49189).
T1 sequence: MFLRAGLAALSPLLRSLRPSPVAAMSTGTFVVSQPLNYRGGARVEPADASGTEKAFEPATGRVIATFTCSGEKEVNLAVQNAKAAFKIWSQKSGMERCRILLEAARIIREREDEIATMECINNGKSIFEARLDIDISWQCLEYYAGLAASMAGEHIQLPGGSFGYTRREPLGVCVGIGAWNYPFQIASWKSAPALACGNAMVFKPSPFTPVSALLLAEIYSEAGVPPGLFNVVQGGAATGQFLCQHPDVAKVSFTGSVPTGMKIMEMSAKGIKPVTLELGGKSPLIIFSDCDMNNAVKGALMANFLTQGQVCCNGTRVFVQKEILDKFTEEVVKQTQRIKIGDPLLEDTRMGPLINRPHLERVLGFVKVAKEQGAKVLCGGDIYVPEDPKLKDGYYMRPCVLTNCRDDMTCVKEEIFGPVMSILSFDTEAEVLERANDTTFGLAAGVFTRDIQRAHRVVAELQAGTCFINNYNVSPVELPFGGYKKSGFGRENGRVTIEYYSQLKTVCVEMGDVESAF
The experiment in a line: affinity purification with mass spectrometry; lysate of HEK293T cells stably transfected with ALDH9A1-flag lentivirus or vector virus; anti-flag antibodies in Co-IP buffer overnight at 4 °C; RIPA wash; shotgun LC-MS/MS.

For the substance “nucleophosmin 1 (NPM1), endogenous (from UniProt P06748 1-294)”, the binding entry was “binds”.
